{"source": "patent US20120095058A1", "about": "“Method of preventing survival of retrovirally cells and of inhibiting formation of infectious retroviruses” (priority 2003, published 2012)", "tested_on": "HIV-1 infected H9 cells", "test": "Apoptosis of HIV-1 infected H9 cells by TUNEL flow cytometry", "type": "cell-based, human", "settings": "within 20 hours, at 200 μM DEF or 40 μM CPX", "method": "Methods: The drug deferiprone (DEF) and ciclopirox (CPX), known as DOHH inhibitors, were compared to the chelators 2-imidazoyl-4-methylphenol (IMP) and desferal (DES). Apoptosis of HIV-1 infected H9 cells, HPV-16 infected SiHa cells, and uninfected lymphocytes was analyzed by TUNEL flow cytometry. DOHH) activity was measured by metabolic labeling with 3H-spennidine.", "note": "Some entries share one result that the patent states for a list of compounds."}
{"smiles": "Cc1c(O)c(=O)ccn1C", "note": "[deferiprone]", "values": [{"measurement": "H9 cells apoptotic", "value": "at least 30%"}]}
